Taken from: PubChem BioAssay AID1224830 (NIAID, 2016)
Screen: 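Genes whose knock-down alters the TNF-alpha reporter response to LPS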 (primary screen). Cells: human THP-1 monocytic leukaemia cells, TNF dual-luciferase reporter clone, PMA-differentiated to macrophage-like cells. Reagents: siRNA pool against human genes, 50 nM. Duration: LPS for 4 h, given about 3 days after siRNA transfection. Treatment: bacterial LPS (TLR4 ligand), 10 ng/ml. Detection: 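Ratio of firefly to renilla light, scaled to the plate median and expressed as a robust z-score per replicate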. Direction: TNF reporter robust z-score: higher = stronger TNF reporter response to LPS. Hit rule: 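Each well counts as active if its z-score is over 2.8 or under -1.5; controls are left without a call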.
Here is one part, drawn at random, of about 18,000 reagents. About 2,900 of all reagents (16%) were called active. 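Calls are made per well; low scores hint the gene aids the LPS response, high scores that it dampens it.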 Unmarked entries are inactive. Repeated entries: four replicate wells of each siRNA pool.

What did the screen give for ZBTB44 (zinc finger and BTB domain containing 44)?
TNF reporter robust z-score: -0.66

For ZBTB44 (zinc finger and BTB domain containing 44), what does the deposit list?
TNF reporter robust z-score: -0.73

For ZBTB44 (zinc finger and BTB domain containing 44), what does the deposit list?
TNF reporter robust z-score: -0.47

What is on record for ZBTB44 (zinc finger and BTB domain containing 44)?
TNF reporter robust z-score: -0.52

For CCDC34 (coiled-coil domain containing 34), what does the deposit list?
TNF reporter robust z-score: 2.15

What did the screen give for CCDC34 (coiled-coil domain containing 34)?
TNF reporter robust z-score: 0.11

For CCDC34 (coiled-coil domain containing 34), what was measured?
TNF reporter robust z-score: 0.05

With CCDC34 (coiled-coil domain containing 34), what does the deposit list?
TNF reporter robust z-score: 2.72

What is on record for WNT3 (Wnt family member 3)?
TNF reporter robust z-score: -0.02

What is on record for WNT3 (Wnt family member 3)?
TNF reporter robust z-score: 1.05

With WNT3 (Wnt family member 3), what was measured?
TNF reporter robust z-score: 2.03

How did the screen score WNT3 (Wnt family member 3)?
TNF reporter robust z-score: 1.93

With MRPL50 (mitochondrial ribosomal protein L50), how do the results read?
TNF reporter robust z-score: 1.02

For MRPL50 (mitochondrial ribosomal protein L50), how do the results read?
TNF reporter robust z-score: 1.94

For MRPL50 (mitochondrial ribosomal protein L50), what does the deposit list?
TNF reporter robust z-score: 2.51

How did the screen score MRPL50 (mitochondrial ribosomal protein L50)?
TNF reporter robust z-score: 1.35

Continued.
How did the screen score OSBPL2 (oxysterol binding protein like 2)?
TNF reporter robust z-score: 0.2

For OSBPL2 (oxysterol binding protein like 2), what does the deposit list?
TNF reporter robust z-score: 0.81

With OSBPL2 (oxysterol binding protein like 2), how do the results read?
TNF reporter robust z-score: 1.76

Which result is listed for OSBPL2 (oxysterol binding protein like 2)?
TNF reporter robust z-score: 1.4

For FAM209A (family with sequence similarity 209 member A), what was measured?
TNF reporter robust z-score: -1.66 (active)

With FAM209A (family with sequence similarity 209 member A), how do the results read?
TNF reporter robust z-score: -0.87

For FAM209A (family with sequence similarity 209 member A), what does the deposit list?
TNF reporter robust z-score: -0.54

Which result is listed for FAM209A (family with sequence similarity 209 member A)?
TNF reporter robust z-score: -0.48

What did the screen give for ZBTB33 (zinc finger and BTB domain containing 33)?
TNF reporter robust z-score: 0.46

With ZBTB33 (zinc finger and BTB domain containing 33), what does the deposit list?
TNF reporter robust z-score: 1.33

Which result is listed for ZBTB33 (zinc finger and BTB domain containing 33)?
TNF reporter robust z-score: 0.11

For ZBTB33 (zinc finger and BTB domain containing 33), how do the results read?
TNF reporter robust z-score: 1.16

What did the screen give for SUSD3 (sushi domain containing 3)?
TNF reporter robust z-score: -0.27

How did the screen score SUSD3 (sushi domain containing 3)?
TNF reporter robust z-score: 1.2

With SUSD3 (sushi domain containing 3), what was measured?
TNF reporter robust z-score: 0.41

How did the screen score SUSD3 (sushi domain containing 3)?
TNF reporter robust z-score: 1.21

What is on record for PROCA1 (protein interacting with cyclin A1)?
TNF reporter robust z-score: -0.8

What did the screen give for PROCA1 (protein interacting with cyclin A1)?
TNF reporter robust z-score: -0.75

For PROCA1 (protein interacting with cyclin A1), what was measured?
TNF reporter robust z-score: -1.09

Which result is listed for PROCA1 (protein interacting with cyclin A1)?
TNF reporter robust z-score: 9.33 (active)

What is on record for GTF2I (general transcription factor IIi)?
TNF reporter robust z-score: -0.32

With GTF2I (general transcription factor IIi), how do the results read?
TNF reporter robust z-score: 0.45

With GTF2I (general transcription factor IIi), what was measured?
TNF reporter robust z-score: -0.16

With GTF2I (general transcription factor IIi), what does the deposit list?
TNF reporter robust z-score: -1.27

Which result is listed for ATG7 (autophagy related 7)?
TNF reporter robust z-score: -0.53

With ATG7 (autophagy related 7), how do the results read?
TNF reporter robust z-score: -0.76

How did the screen score ATG7 (autophagy related 7)?
TNF reporter robust z-score: -0.79

What is on record for ATG7 (autophagy related 7)?
TNF reporter robust z-score: -0.39

For CADM4 (cell adhesion molecule 4), how do the results read?
TNF reporter robust z-score: 0.18

Which result is listed for CADM4 (cell adhesion molecule 4)?
TNF reporter robust z-score: 0.47

How did the screen score CADM4 (cell adhesion molecule 4)?
TNF reporter robust z-score: -0.37

For CADM4 (cell adhesion molecule 4), how do the results read?
TNF reporter robust z-score: -1.56 (active)
